Laboratory results: PubChem BioAssay AID1347426 (Functional Genomics Laboratory (NCATS/FGL), 2020)
Among all 31,000 sequences or so, about 1,400 (4.5%) were called active.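 The calls were made as follows: active = median seed-adjusted z-score above 1 or below -1; inactive = the rest.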 Some of the results follow.

Assay: Novel Modifiers of Survival Motor Neuron (SMN) Protein: Gene Identification via Genome-wide siRNA Screen;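 also: luminescence tracks full-length SMN protein made from the SMN2 reporter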
Conditions: HEK293T SMN2-luciferase reporter, siRNA knockdown, 72 h; actives lie on both sides
Method in brief: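 Steps: spot 1 pmol siRNA, add Lipofectamine RNAiMax in serum-free DMEM, seed HEK293T SMN2–luciferase reporter cells; incubate 72 h at 37 °C; add ONE-Glo; normalize luminescence to control siRNA, log10, MAD. Candidates: |MAD| > 1.0.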

| Sequence | median seed-adjusted z-score |
| --- | --- |
| GAGUCAGACGGAAUCGAAATT against CTSG | inactive: -0.47 |
| GAAGGAGACUUGGAACGCATT against TPM3 | inactive: 0.111 |
| UGAAGUGGAUUUAACUAAATT against RAD52 | inactive: -0.737 |
| CGGAUAUUCCUGAACGCAATT against MARK3 | inactive: 0.271 |
| GCUUGAAGUUAGUGAAUUATT against SLC37A3 | inactive: 0.246 |
| GAAACUCCCAUGUCUUAUATT against ZKSCAN3 | inactive: 0 |
| CCAGACCACUUGCUAUGAATT against GATA6 | inactive: 0.546 |
| CCAUGAUGAGUCUUCUGAATT against LPAR1 | inactive: 0.514 |
| CUCCAAAUGUUGCGCUUGATT against PIK3CB | inactive: 0.0911 |
| GCCGUGAUUUGGAAAGGAATT against CDC2L2 | inactive: 0.153 |
| GGAGUUCAUUCUCAACAGUTT against ACOX1 | inactive: -0.897 |
| CUCCCUCCCUCAAUAUUCATT against MDS1 | inactive: 0.0345 |
| CAAACGUAUUAGUUCAGCATT against KIF20B | inactive: 0 |
| GCUCAGUGACUGUUCGAGATT against TP53RK | inactive: 0 |
| AGAGAUACUUCUUAAAUCATT against YAP1 | inactive: -0.247 |
| GCAUCGAAGCCAUCAACGATT against GIPC3 | inactive: -0.27 |
| GAAAGAUCUUUGCGGAAAATT against TOPORS | inactive: 0.381 |
| GAAUGGUCCUAUAUCUCAATT against LARP5 | inactive: -0.144 |
| GAAAGUCCUUCAACCAGAATT against ZBTB34 | inactive: 0.0298 |
| GGAUGUGACAUGUUCGACUTT against QTRT1 | inactive: 0.0708 |
| AGUUCAUCCGGGAUAAGUATT against PRPF31 | inactive: -0.592 |
| GCCGAGUGUUGAAUCAGUATT against CYP4X1 | inactive: 0.546 |

| Sequence | median seed-adjusted z-score |
| --- | --- |
| CCGUGAACCUAUUCUCAGATT against MYBBP1A | inactive: 0.572 |
| CCAUUGCUUUGACGAAAGATT against HERC2 | inactive: 0.98 |
| CGACUACUACUACCCUGAUTT against CCR8 | inactive: -0.206 |
| CCGUCUACGUGACCAUUGATT against ABCC1 | inactive: 0 |
| GAAAGAUGGUUCUACCACATT against ACAA1 | inactive: 0.384 |
| CGGUGCCUGUUGUGAAAUATT against MYO1C | inactive: 0.566 |
| GUAACUCCAUUGGACCACATT against NLRC3 | inactive: 0.323 |
| CAGUGCCUCUACUACGUGATT against PREB | inactive: 0.182 |
| ACAUCGUGCUUUACAACAATT against CHRNB4 | inactive: -0.317 |
| GGCGAUUUGUAAACCGAAUTT against NEDD4 | inactive: 0.454 |
| CAGAUUUUGUGAUCGAAUATT against PDILT | inactive: -0.0994 |
| CGAUCUUGAUAAAGCCUAUTT against MPP5 | inactive: 0.429 |
| CCGUUGCUCAGAUAACUCATT against PHC2 | inactive: 0.177 |
| GGACCUACGUUGCAGUUCATT against SUZ12 | active: -1.65 |
| GUAUGUCGGGUAUACCGUUTT against RAD54L2 | inactive: -0.0646 |
| GGUUCACUGUGAUAUACAATT against METTL7A | inactive: 0.278 |
| CGACUGCAAGGACAAAUCUTT against LDLR | inactive: -0.142 |
| AAUCCACAAGAGUUACUAATT against ZNF410 | inactive: -0.135 |
| GUCUCCUACUGCACCAGAATT against RTN4R | inactive: -0.536 |
| GACCAAGGCUUACUGAAUATT against GYG2 | inactive: 0.113 |
| CAAUGGGACCAGUAUGUUATT against PCTP | inactive: 0.446 |
| GGAUAAUGAGUCGGAAGUATT against CNTN4 | inactive: -0.407 |

| Sequence | median seed-adjusted z-score |
| --- | --- |
| GCAUUUGACUUUUACUCAATT against PBLD | inactive: -0.0809 |
| GACUGUUAAUUCUCGUAUATT against REV3L | inactive: 0.062 |
| CUCGAGUUCCUAUAGCAAATT against UBE3C | inactive: 0.0341 |
| GCUUCACCGUGGAAGGUAUTT against APOBEC3C | inactive: -0.103 |
| GCGCAUAGCUCCGACUACATT against SPON2 | inactive: 0 |
| AGAUCGCCGUAGACAAGAATT against CPSF3L | inactive: -0.385 |
| GACAAGCCUUUGCACUCAATT against SLC25A12 | inactive: -0.275 |
| CCAUCUCACUUUAAUAAUATT against SNCA | inactive: 0.36 |
| GAUUGCAGCCAAUCCCUUUTT against TBX6 | inactive: 0.144 |
| ACCUAGUGGUAAUGAUGUUTT against TERF1 | inactive: 0.0114 |
| GAUGAAGAAUGAUAAGUCATT against HNRNPC | active: -2.15 |
| CAUUGGAAUUGUUGGUAAATT against PSMA1 | inactive: -0.145 |
| CUACCAUUGCAAAACGAAATT against MAP4K5 | inactive: -0.309 |
| GGUGAGCACGGUUUCCUGATT against ABHD9 | inactive: 0.486 |
| GGACAAUUGUCAUCGCAAATT against FAT3 | inactive: 0.246 |
| AGAUAACUUCCACGGCUUATT against LMAN2 | inactive: -0.0921 |
| CCUUCGAGGUGACUGGAUATT against SLC26A11 | inactive: -0.507 |
| GCACCAUAACAUUAGAGAATT against FABP9 | inactive: 0.527 |
| AGAUGAAUCUGGAAUCGGUTT against LCN1 | inactive: 0.0607 |
| GGCUCUAUAUGUGACCGAUTT against MEGF9 | inactive: -0.0893 |
| CGGUAAAUGUCACUCGUGATT against PRKG1 | inactive: 0 |
| GGAUUAUUGGGAUUGUAGATT against SEPHS1 | inactive: -0.102 |

| Sequence | median seed-adjusted z-score |
| --- | --- |
| CGUUCUCGAUCAAAAGGCATT against SFRS6 | inactive: 0.378 |
| CAGGGCAAAUGAACAGGUUTT against TOMM40L | inactive: 0.12 |
| CCAUGUCUACAAUAUAAAATT against DNASE2B | inactive: 0.86 |
| GGAGAUACAUCGGUAGGUATT against IDUA | inactive: -0.353 |
| AGCAGUUAAUAUCCAGUCATT against MS4A3 | inactive: 0.189 |
| CGUUCUGUACCUGGACCUATT against MFSD3 | inactive: -0.0706 |
| CGGACUAUGUAGAUCUCUUTT against AKR1CL1 | inactive: 0.488 |
| GCUACAUCGAGGACCUUAATT against SERPINB1 | inactive: 0.734 |
| CUACUGAUUUAUCUAGAUATT against TNFRSF19 | inactive: -0.672 |
| CAACAUCUCGGGUAUCCUUTT against SLC34A1 | inactive: 0.139 |
| GGCUUAUGAUAACUCAUAUTT against SMC4 | inactive: 0.646 |
| GGUUUUAUGGAGAUACAAATT against UGT2A1 | inactive: 0.213 |
| CCUAAAGCCUGAAGAAGAATT against TXNDC2 | active: -1.29 |
| GCUCCACAACACCACUAAATT against TSSK4 | inactive: -0.162 |
| CCAGUUUCCUACAAGCGAATT against SPG7 | inactive: -0.293 |
| AGUCACUGCCAGUUAAUAATT against SSX5 | inactive: -0.0517 |
| GAUCGAGACAGUCAAGAUATT against MALT1 | inactive: 0.442 |
| CACUAUUUCGGAUUGGUCATT against USP46 | inactive: -0.964 |
| GGAUCGGAUUUACCCAUAATT against INPP5F | inactive: 0.118 |
| GAUAGAGACUAGUAGAUCUTT against TDRD7 | inactive: 0.11 |
| GGACCUCCAUCAACUGAGATT against LRRC3B | inactive: 0 |
| GGAUGUCUAAGCACCGUAATT against CTSH | inactive: -0.81 |

Quoted at random: 5 entries already listed

| Sequence | median seed-adjusted z-score |
| --- | --- |
| CACUAUUUCGGAUUGGUCATT against USP46 | inactive: -0.964 |
| AGUCACUGCCAGUUAAUAATT against SSX5 | inactive: -0.0517 |
| GAUCGAGACAGUCAAGAUATT against MALT1 | inactive: 0.442 |
| GGACCUCCAUCAACUGAGATT against LRRC3B | inactive: 0 |
| GAUAGAGACUAGUAGAUCUTT against TDRD7 | inactive: 0.11 |

(next part)

| Sequence | median seed-adjusted z-score |
| --- | --- |
| GGAUAUCACCGAAUGCAAUTT against BRPF3 | inactive: -0.615 |
| AGAUUGUUUUGAGAGGUGATT against SPCS3 | inactive: 0.417 |
| GCAUUGUCUCUCUUAUGUUTT against SYVN1 | active: -1.41 |
| GCAGAUAUGUCUAUGACAATT against TMPRSS2 | inactive: 0.433 |
| AGUCAGAAUGGGACUAACATT against NPFFR1 | inactive: -0.613 |
| GGUUUACUCUGAAUCCCAATT against MAP2K4 | inactive: -0.366 |
| GGCUUUGACAAAUAGCCGATT against KCNH5 | inactive: -0.827 |
| GCUUACUAUUCACUAUGAATT against SNTB2 | inactive: 0.268 |
| CAUUGAAUCCUUUGACAAATT against GBA3 | inactive: 0.246 |
| GGUGCACUGUAUUAGCACATT against TFCP2 | inactive: 0.14 |
| GGAUCGAGAGUGUAAUUAATT against PAPD5 | inactive: 0.325 |
| GGAGCUACAAGAACCAGCATT against IL21R | inactive: 0.0068 |
| GGAUCUCAUGCUAAGGUGATT against GIP | inactive: 0 |
| GGCCCGAGCUGAUUGACUATT against ACTN1 | inactive: 0 |
| GGCACUAUGGUGACCAUUATT against PLXNA2 | inactive: 0.308 |
| CGGAUGAGGUGAUCCUGAATT against VAC14 | inactive: 0.0825 |
| GGCCUUCUGUAAACAGGAATT against NCAN | inactive: -0.391 |
| GGAUGAUAGAGGAAUUGUATT against SKIV2L2 | inactive: 0.642 |
| GCCCUAGUGUUCCUGCUGATT against IL8RA | inactive: 0.316 |
| GUGAUAAAGUAGUUCGAAATT against LMLN | inactive: 0 |
